Measured data: PubChem BioAssay AID1508597 (Cure First, 2020)

Test: 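Knock-downs altering ovarian cancer cell survival with or without PARP inhibitor rucaparib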 (primary screen)
Cell system: human ovarian carcinoma lines grown from tumours: OCI-P5x (papillary serous) and OCI-C5x (clear cell)
Reagents: siRNA pool against human genes, 1.25 pmol siRNA per well
Duration: 72 h or 96 h, depending on the cell culture
Treatment: rucaparib 20 µM (about IC30) or vehicle, present until read-out
Rucaparib or vehicle: Vehicle
Cell line: OCI-P5x (serous)
Read-out: 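Luminescent ATP-based viability assay read 72 or 96 h after transfection, depending on culture, given as normalised percent viability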
Direction: viability, normalised: higher = more viable cells remaining
Call rule: 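a well counts as a hit if its normalised viability is under 80 percent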
Meaning of the calls: active = viability under 80%; inactive = viability 80% or more
Shown is an unselected part of the about 2,100 reagents, in one setting of the screen. 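Calls flag viability under 80% in either arm, not effects specific to rucaparib; the reference for percent is not stated.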 Some reagents were tested in more than one well and are listed for each. No sequences are given here. The record does not give: the 100% reference.

gene,technical replicate,"viability, normalised (%)",activity call
TNF (GeneID 7124),1,50.7,active
TNF (GeneID 7124),2,61.3,active
TNF (GeneID 7124),3,55.8,active
DDX28 (GeneID 55794),1,91.2,inactive
DDX28 (GeneID 55794),2,80.7,inactive
DDX28 (GeneID 55794),3,90.6,inactive
H4C4 (GeneID 8360),1,51.3,active
H4C4 (GeneID 8360),2,48.2,active
H4C4 (GeneID 8360),3,53.7,active
LCK (GeneID 3932),1,90.8,inactive
LCK (GeneID 3932),2,88.1,inactive
LCK (GeneID 3932),3,85.4,inactive
NEK10 (GeneID 152110),1,112,inactive
NEK10 (GeneID 152110),2,100,inactive
NEK10 (GeneID 152110),3,107,inactive
SMARCB1 (GeneID 6598),1,66.3,active
SMARCB1 (GeneID 6598),2,71.9,active
SMARCB1 (GeneID 6598),3,79,active
ULK1 (GeneID 8408),1,63.9,active
ULK1 (GeneID 8408),2,56.7,active
ULK1 (GeneID 8408),3,60.5,active

No new results follow: entries from further up.
gene,technical replicate,"viability, normalised (%)",activity call
DDX28 (GeneID 55794),1,91.2,inactive
DDX28 (GeneID 55794),2,80.7,inactive
DDX28 (GeneID 55794),3,90.6,inactive
H4C4 (GeneID 8360),1,51.3,active
H4C4 (GeneID 8360),2,48.2,active
H4C4 (GeneID 8360),3,53.7,active

More results:
gene,technical replicate,"viability, normalised (%)",activity call
CLK4 (GeneID 57396),1,74,active
CLK4 (GeneID 57396),2,71.6,active
CLK4 (GeneID 57396),3,57.4,active
GGCT (GeneID 79017),1,71.6,active
GGCT (GeneID 79017),2,64.9,active
GGCT (GeneID 79017),3,73,active
CAMK2G (GeneID 818),1,71.3,active
CAMK2G (GeneID 818),1,70.5,active
CAMK2G (GeneID 818),2,63.3,active
CAMK2G (GeneID 818),2,86.1,inactive
CAMK2G (GeneID 818),3,53.1,active
CAMK2G (GeneID 818),3,86.5,inactive
SCYL3 (GeneID 57147),1,97.6,inactive
SCYL3 (GeneID 57147),2,86.3,inactive
SCYL3 (GeneID 57147),3,82.9,inactive
FGR (GeneID 2268),1,64,active
FGR (GeneID 2268),2,76.8,active
FGR (GeneID 2268),3,57.7,active
FOS (GeneID 2353),1,73.9,active
FOS (GeneID 2353),2,63.7,active
FOS (GeneID 2353),3,65.6,active
CASP7 (GeneID 840),1,89.8,inactive
CASP7 (GeneID 840),2,65.7,active
CASP7 (GeneID 840),3,71.4,active
MORC3 (GeneID 23515),1,66.3,active
MORC3 (GeneID 23515),2,75.3,active
MORC3 (GeneID 23515),3,69.1,active
DUSP1 (GeneID 1843),1,58.8,active
DUSP1 (GeneID 1843),2,66.9,active
DUSP1 (GeneID 1843),3,53.5,active
WNK4 (GeneID 65266),1,49.9,active
WNK4 (GeneID 65266),2,55.2,active
WNK4 (GeneID 65266),3,50.6,active
MED16 (GeneID 10025),1,47.9,active
MED16 (GeneID 10025),2,58.8,active
MED16 (GeneID 10025),3,50.2,active
